Laboratory results published in paper PMC5662243.
These are yes or no findings as the source states them, for the method shown. In cells and extracts the contact can be indirect. Some results given as binding are weak or reduced against the parent protein; the word gives no strength.

Sequences of proteins named here, by UniProt entry; tags and fusion partners are left off.
UniProt Q92993: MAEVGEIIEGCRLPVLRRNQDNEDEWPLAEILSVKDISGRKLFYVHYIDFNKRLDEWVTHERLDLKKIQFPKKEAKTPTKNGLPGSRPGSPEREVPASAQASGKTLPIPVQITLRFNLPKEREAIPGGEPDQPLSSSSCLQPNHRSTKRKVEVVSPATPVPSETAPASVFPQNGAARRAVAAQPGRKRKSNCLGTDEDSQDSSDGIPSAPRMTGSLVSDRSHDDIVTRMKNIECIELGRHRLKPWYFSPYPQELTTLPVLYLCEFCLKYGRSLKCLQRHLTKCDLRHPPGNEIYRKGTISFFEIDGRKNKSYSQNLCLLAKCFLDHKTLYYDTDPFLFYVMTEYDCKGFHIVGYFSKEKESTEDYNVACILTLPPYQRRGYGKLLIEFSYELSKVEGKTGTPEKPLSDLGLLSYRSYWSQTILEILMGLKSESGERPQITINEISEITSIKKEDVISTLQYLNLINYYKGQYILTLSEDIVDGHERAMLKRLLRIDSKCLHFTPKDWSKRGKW
UniProt P08047: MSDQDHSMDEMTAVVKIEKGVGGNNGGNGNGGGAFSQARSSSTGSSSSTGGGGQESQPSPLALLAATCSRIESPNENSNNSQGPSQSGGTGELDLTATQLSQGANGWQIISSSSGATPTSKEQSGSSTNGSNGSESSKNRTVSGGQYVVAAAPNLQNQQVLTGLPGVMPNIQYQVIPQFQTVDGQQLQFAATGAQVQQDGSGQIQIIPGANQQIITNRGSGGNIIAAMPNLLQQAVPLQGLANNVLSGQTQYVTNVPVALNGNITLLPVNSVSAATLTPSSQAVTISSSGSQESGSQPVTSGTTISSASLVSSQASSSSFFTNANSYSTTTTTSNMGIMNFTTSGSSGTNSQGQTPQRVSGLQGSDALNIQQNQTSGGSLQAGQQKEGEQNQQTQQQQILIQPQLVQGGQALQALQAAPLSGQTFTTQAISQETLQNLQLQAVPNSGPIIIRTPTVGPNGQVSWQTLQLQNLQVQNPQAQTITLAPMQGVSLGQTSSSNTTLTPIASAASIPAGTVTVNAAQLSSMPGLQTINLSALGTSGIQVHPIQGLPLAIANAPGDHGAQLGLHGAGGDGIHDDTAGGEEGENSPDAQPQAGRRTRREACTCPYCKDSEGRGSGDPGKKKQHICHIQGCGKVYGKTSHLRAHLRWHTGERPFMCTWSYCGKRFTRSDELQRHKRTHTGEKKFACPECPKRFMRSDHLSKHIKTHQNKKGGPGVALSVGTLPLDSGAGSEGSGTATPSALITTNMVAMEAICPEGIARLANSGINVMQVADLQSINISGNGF

Target: HIV-1 TAT Interactive protein (TIP60) (human (endogenous in HeLa)) (UniProt Q92993)
Assay: co-IP; HeLa cell lysate immunoprecipitated overnight with the endogenous TIP60 antibody; interacting Sp1 detected by western blotting; done in the absence and in the presence of DNAse

## Specificity Protein 1 (Sp1) (from UniProt P08047 1-785)
  binding: binds
